Assay results from patent publication US20220106391A1.
Numbering of substitutions follows the chain as printed. These are yes or no findings as the source states them, for the method shown. Binding calls can cover weak binding; strength is not graded here.

B1: 26C08-02F06 (antibody, IgG1, V domains shown)
VH: EVKLEESGPGLVAPSQSLSITCTVSGFSLTGYGVNWVRQPPGKGLEWLGMIWGDGSTDYNSALKSRLSISKDNSKSQVFLKMNSLQTDDTARYYCARGGYDYDVSFFDYWGQGTTLTVSS
VL: DIVLTQTTSSLSASLGDRVTISCRASQDISNYLNWYQQKPDGTVKLLIYYTSRFHSGVPSRFSGSGSGTDYSLTISNLEHEDIATYFCQQGNTLPYTFGGGT
B2: 16G01-02F03 (antibody, IgG2a, V domains shown)
VH: EVQLQESGAELVKPGASVKLSCKASGYTFTNYWMHWVKQRPGQGLEWIGHIDPSDGETHYNQKFKDKATLTVDKSSSTAYMQLTGLTSEDSAVYYCARFLPDYWGQGTSVTVSS
VL: DIVLTQTPAIMSASPGEKVTMTCRASSSVSSIYLHWYQQKPGSSPKLWIYSTSNLASGVPARFSGSGSGTSYSLTVSSVEAEDAATYYCQLYDNSPLTFGAGT
B3: 01B12-02B08 (antibody, IgG1, V domains shown)
VH: EVKLQESGPGLVAPSQSLSITCTVSGFSLTGYGVNWVRQPPGKGLEWLGMIWGDGSTDYNSALKSRLSISKDNSKSQVFLKMNSLQTDDTARYYCARDGYYYGTTWYFDVWGAGTTVTVSS
VL: B1 VL with L4M, T7S, V44I, F54L, H80Q, N92S, Y96R
B4: 15H02-02E01 (antibody, IgG1, V domains shown)
VH: B3 VH with K3Q, Q5E, E6Q
VL: B1 VL with T7S, V44I, F54L, H80Q, N92S, Y96R
B5: 20D11-02E10 (antibody, IgG1, V domains shown)
VH: B3 VH with K3Q, Q5E
VL: DIVITQTPLSLPVSLGDQASISCRSSQSIVHINRHTYLGWYLQKPGQSLKLLIYGVSNRFSGVPDRFSGSGSGTDFTLKISRVEAEDMGVYYCFQGTHVPFTFGSGT
B6: 31F05-02B03 (antibody, IgG1, V domains shown)
VH: B3 VH with K3Q, E6Q
VL: B1 VL with V3Q, L4M, V44I, F54L, H80Q, N92S, Y96R

Columns and labels:
[1] = biological target: canine beta-NGF (cNGF) (canine); test: ELISA titration of purified antibody, 0.008 to 1 ug/ml; antigen cNGF per the axis label 'anti-cNGF subclone' and paragraph 307
[2] = biological target: canine beta-NGF (cNGF) (canine); test: competitive ELISA: supernatant of the parent hybridoma well (before subcloning) pre-incubated with biotinylated cNGF (0.1 ug/ml), then added to plate-bound cTrkA-Fc; dilution not given

Binder	binding [1]	binding [2]
B1	binds	binds
B2	binds	binds
B3	binds	binds
B4	binds	binds
B5	binds	binds
B6	binds	binds
